Source: US20100184186A1, “NOVEL RIGIDOPORUS MICROPORUS LACCASE” (Academia Sinica, priority 2009, published 2010)
At least one read-out could not be matched to a standard name with certainty.

What was measured:
[1] = Kinetic constants of Lcc35, SGZ substrate; assay type: biochemical; conditions: pH 6, 70° C.
[2] = Kinetic constants of Lcc35, ABTS substrate; assay type: biochemical; conditions: pH 5, 70° C.

B1: Lcc35: novel laccase isolated from R. microporus BCRC 35318; mature form SEQ ID NO:1, precursor SEQ ID NO:2 (protein)
chain: SVGPVADIPIVNANLSPDGFTRTTVLAGGTFPGPLIVGNKGDNFKLNVVDQLTDANQLKTTTIHWHGFFQHGTNWADGPAFVNQCPIASGNSFLYDFSAADQAGTFWYHSHLSTQYCDGLRGAFVVYDPSDPNASLYDVDNESTVITLADWYHTLARLGARFPTPDSTLINGLGRFAGGPASDLSVITVESGKRYRFRLVSISCDPNYTFSIDGHDMTIIEVNGINHDALSVDSIQIFAGQRYSFVLNANQAVGNYWIRANPNIGTRGFSGGINSAILRYVGADAVEPTTSQGTSTKPLVETNLHPSQNPGAVGSPTPGGVDLALNLALGFAGGSFTINGATFTSPTVPVLLQILSGAQSATDLLPSGSVFTLPGDSTIEISMPAGVAGGPHPFHLHGHAFDVVRASGSSTYNYANPVRRDVVSLGAAGDNVTIRFKTDNPGPWFLHCHIDWHLEAGLAIVFAEDTPNTAAINPVPQAWSDLCPIYNALAESDH
modifications: RIGIDOPORUS MICROPORUS
Kcat/Km [1]: 107.1 µM⁻¹ s⁻¹ | Kcat/Km [2]: 13.8 µM⁻¹ s⁻¹
